No constants are given. Whether binding was seen depends on the method and setting. Binding seen in cells or lysates may run through a third protein. These calls come from enrichment with a bait or labelling near it, and not all partners need be listed.
Target: T1, MDC1-[p]T752 biotinylated phosphopeptide (Biotin-SGS-…[p]TQPFCL-NH2) (human)
T1 sequence (peptide, biotin on the N-terminus; phosphothreonine at T752; C-terminal amide): SGSLDEPWEVLATQPFCL
Assay: affinity purification with mass spectrometry; biotinylated peptide on streptavidin Dynabeads, incubated with HeLa nuclear extract 4 h at 4°C; on-bead trypsin digestion, LC-MS/MS; two independent experiments; only the target purified

- binding: binds
B1: Pellino 2 (endogenous, HeLa nuclear extract, identified by mass spectrometry) (protein, UniProt Q9HAT8 1-420)
chain: MFSPGQEEHCAPNKEPVKYGELVVLGYNGALPNGDRGRRKSRFALYKRPKANGVKPSTVHVISTPQASKAISCKGQHSISYTLSRNQTVVVEYTHDKDTDMFQVGRSTESPIDFVVTDTISGSQNTDEAQITQSTISRFACRIVCDRNEPYTARIFAAGFDSSKNIFLGEKAAKWKNPDGHMDGLTTNGVLVMHPRGGFTEESQPGVWREISVCGDVYTLRETRSAQQRGKLVESETNVLQDGSLIDLCGATLLWRTADGLFHTPTQKHIEALRQEINAARPQCPVGLNTLAFPSINRKEVVEEKQPWAYLSCGHVHGYHNWGHRSDTEANERECPMCRTVGPYVPLWLGCEAGFYVDAGPPTHAFTPCGHVCSEKSAKYWSQIPLPHGTHAFHAACPFCATQLVGEQNCIKLIFQGPID
